Experimental data from the supplement of paper PMC10849652.
The list shows a part of the results.

Protein sequences, listed by entry. Tags and fused reporters are not part of them. Lines headed by an entry give the natural chain unless they say otherwise; changes in a name come on top.
UniProt Q7Z7A3: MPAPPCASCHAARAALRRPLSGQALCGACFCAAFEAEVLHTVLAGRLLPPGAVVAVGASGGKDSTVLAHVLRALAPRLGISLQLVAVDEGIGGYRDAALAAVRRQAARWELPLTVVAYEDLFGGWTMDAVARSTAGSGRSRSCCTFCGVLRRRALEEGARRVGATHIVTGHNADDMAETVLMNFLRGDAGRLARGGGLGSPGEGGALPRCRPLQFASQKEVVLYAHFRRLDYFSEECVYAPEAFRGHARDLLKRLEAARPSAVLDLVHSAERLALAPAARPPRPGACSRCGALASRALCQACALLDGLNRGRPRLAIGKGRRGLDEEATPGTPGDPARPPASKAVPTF
UniProt P00167, whole entry, looked up: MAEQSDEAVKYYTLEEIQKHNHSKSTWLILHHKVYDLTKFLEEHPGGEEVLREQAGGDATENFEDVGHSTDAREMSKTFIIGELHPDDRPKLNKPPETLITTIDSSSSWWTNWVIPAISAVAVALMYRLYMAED
UniProt Q96GG9: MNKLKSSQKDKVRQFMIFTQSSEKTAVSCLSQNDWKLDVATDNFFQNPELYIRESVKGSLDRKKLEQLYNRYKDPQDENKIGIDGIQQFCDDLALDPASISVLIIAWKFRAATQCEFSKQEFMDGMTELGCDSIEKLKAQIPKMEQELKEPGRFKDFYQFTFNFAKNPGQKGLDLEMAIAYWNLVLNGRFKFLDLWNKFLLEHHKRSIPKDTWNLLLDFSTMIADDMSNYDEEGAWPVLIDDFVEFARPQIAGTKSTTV
UniProt Q9Y6A2: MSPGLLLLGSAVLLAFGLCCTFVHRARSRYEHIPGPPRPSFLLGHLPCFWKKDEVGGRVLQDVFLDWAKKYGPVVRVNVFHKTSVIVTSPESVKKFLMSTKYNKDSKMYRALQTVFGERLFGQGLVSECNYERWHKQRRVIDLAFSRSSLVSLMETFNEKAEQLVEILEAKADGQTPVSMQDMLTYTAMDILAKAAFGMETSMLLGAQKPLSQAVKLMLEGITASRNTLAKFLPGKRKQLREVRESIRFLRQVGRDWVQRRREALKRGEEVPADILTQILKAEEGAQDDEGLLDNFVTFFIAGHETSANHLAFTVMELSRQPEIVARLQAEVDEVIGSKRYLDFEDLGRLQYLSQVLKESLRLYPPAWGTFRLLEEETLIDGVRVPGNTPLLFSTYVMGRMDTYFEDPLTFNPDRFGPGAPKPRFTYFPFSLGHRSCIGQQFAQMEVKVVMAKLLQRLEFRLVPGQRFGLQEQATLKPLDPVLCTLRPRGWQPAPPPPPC
UniProt Q58WW2: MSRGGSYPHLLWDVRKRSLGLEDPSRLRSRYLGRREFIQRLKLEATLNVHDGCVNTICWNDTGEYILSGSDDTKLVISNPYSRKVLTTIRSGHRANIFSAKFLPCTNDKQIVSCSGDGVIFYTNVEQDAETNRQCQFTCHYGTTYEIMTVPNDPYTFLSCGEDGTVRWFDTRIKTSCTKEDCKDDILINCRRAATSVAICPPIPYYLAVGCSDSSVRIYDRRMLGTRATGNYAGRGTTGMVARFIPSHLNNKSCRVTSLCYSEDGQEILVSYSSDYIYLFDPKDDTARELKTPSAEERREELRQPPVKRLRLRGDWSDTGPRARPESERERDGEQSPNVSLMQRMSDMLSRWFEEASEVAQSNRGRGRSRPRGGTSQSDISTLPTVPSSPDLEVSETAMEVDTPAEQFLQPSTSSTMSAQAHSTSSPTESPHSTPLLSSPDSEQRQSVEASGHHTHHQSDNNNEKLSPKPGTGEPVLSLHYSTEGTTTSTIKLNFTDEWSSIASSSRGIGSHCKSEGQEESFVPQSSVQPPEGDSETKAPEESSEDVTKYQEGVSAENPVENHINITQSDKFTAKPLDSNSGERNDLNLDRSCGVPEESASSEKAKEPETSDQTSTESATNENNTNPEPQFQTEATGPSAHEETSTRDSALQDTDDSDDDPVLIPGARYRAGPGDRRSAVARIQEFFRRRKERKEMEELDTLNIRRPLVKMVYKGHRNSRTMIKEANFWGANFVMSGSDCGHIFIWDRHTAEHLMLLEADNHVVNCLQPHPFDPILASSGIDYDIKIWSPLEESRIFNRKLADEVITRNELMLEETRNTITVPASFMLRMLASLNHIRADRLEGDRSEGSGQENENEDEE
UniProt Q9UJU6: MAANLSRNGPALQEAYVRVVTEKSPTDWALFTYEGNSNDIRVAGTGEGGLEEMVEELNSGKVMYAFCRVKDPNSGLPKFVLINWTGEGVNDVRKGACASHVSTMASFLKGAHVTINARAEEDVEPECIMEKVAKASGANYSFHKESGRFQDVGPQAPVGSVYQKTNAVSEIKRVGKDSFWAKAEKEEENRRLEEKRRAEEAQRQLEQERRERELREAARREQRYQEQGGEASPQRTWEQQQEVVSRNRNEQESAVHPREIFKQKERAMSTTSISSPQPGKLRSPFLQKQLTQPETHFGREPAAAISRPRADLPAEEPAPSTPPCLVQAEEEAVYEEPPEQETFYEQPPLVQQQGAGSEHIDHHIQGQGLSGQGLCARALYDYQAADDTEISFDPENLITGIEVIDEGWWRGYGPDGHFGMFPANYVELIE
UniProt Q9UBR2: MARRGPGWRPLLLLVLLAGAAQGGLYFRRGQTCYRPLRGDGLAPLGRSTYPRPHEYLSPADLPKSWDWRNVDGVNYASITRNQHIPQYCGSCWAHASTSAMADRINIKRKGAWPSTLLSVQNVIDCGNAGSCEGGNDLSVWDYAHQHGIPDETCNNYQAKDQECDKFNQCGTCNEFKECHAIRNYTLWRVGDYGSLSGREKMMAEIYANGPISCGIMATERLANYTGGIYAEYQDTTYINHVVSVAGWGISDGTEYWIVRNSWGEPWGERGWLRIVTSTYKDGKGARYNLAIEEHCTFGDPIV
UniProt Q8WUE5: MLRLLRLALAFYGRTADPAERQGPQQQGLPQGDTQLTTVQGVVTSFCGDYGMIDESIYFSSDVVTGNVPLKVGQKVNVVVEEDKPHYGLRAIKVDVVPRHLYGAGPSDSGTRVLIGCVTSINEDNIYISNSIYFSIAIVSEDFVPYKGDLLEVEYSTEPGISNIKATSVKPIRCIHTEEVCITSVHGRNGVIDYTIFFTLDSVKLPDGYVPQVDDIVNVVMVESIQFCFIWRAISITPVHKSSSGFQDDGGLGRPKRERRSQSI
UniProt Q9NV06: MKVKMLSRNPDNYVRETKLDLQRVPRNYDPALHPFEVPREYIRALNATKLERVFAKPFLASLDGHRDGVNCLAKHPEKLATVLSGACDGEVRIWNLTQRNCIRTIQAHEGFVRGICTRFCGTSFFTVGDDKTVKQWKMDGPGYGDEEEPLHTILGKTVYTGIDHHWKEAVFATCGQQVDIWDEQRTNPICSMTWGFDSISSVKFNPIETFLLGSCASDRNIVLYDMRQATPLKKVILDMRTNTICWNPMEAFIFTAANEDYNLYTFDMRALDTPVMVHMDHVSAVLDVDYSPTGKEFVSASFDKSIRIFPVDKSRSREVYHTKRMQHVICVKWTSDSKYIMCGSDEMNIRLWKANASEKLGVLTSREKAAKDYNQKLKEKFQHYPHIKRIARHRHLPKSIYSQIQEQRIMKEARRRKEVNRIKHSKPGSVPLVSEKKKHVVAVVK
UniProt Q8NBI2: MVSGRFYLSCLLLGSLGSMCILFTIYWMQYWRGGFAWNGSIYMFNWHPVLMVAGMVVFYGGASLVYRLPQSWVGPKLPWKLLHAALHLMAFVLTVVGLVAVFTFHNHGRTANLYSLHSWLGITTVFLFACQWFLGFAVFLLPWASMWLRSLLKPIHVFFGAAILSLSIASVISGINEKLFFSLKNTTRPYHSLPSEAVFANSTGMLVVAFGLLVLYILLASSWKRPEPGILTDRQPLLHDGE
UniProt Q2TBE0: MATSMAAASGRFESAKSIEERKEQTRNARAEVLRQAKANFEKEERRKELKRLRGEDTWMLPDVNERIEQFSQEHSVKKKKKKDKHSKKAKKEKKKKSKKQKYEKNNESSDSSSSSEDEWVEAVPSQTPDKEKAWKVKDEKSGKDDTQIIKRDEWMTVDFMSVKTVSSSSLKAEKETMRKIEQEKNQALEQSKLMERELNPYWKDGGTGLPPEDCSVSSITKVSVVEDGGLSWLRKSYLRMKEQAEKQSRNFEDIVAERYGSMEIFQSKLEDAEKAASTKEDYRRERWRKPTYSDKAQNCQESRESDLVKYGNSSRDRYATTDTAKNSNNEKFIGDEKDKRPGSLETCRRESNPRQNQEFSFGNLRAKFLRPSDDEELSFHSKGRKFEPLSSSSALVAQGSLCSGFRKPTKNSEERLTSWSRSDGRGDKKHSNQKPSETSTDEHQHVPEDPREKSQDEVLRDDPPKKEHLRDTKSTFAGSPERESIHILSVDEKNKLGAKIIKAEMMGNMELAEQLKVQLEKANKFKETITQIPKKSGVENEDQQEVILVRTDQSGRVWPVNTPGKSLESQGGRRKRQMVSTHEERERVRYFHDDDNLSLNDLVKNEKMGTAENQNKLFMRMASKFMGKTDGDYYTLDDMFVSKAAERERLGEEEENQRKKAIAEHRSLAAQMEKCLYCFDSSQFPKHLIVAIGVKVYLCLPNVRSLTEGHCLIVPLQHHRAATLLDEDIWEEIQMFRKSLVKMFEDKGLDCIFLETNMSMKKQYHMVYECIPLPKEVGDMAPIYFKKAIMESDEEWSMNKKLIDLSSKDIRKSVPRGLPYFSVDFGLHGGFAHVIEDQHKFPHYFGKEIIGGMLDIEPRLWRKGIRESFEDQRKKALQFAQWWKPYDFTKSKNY
UniProt Q9UER7, whole entry, looked up: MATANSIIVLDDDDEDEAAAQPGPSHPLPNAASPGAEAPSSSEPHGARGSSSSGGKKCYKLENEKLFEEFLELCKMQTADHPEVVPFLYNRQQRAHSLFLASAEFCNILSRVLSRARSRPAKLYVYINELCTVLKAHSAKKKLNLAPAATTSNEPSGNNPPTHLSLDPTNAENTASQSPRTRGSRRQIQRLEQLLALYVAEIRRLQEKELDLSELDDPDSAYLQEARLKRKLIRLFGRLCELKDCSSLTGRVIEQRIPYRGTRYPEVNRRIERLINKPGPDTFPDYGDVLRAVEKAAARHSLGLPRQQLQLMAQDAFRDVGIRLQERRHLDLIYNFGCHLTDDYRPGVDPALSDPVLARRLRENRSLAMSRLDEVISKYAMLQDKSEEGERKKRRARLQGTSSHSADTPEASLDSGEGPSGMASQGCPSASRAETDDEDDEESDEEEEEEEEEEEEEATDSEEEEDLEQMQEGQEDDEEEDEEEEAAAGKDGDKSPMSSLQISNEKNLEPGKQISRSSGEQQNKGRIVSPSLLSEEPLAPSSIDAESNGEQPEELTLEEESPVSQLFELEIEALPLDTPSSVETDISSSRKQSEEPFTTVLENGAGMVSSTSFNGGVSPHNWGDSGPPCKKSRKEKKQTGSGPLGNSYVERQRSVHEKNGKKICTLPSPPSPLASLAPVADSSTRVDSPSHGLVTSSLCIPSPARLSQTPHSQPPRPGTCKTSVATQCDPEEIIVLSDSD
UniProt P33240: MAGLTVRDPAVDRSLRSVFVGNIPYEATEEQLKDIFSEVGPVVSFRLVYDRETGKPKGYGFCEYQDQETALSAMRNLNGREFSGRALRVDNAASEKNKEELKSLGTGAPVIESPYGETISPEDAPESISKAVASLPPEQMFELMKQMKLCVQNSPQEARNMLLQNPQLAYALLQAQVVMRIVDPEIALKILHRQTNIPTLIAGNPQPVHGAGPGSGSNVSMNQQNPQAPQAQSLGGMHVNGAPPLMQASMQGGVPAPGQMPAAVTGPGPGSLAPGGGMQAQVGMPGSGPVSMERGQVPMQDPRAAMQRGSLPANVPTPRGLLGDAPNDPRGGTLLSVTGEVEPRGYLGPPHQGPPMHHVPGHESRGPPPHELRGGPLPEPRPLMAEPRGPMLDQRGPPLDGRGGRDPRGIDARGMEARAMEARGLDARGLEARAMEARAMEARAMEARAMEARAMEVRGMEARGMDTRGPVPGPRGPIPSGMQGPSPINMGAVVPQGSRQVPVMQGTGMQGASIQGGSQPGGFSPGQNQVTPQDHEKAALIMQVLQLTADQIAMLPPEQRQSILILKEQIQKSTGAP
UniProt Q16850: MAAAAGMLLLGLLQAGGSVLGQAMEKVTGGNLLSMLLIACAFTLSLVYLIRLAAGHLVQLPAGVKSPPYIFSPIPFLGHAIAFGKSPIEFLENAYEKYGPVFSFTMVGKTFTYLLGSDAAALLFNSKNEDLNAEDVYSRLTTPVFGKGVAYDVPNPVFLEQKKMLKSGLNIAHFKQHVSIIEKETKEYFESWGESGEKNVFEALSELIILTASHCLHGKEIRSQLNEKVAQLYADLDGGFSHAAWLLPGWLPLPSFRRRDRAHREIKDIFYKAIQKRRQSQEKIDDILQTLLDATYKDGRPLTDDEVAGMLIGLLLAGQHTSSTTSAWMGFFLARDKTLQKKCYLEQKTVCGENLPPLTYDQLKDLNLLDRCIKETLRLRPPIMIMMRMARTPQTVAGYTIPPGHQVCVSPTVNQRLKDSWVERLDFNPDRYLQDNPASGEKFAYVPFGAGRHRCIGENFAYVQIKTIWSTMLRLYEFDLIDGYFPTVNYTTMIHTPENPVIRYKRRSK

compound: CC1=CC=C(C=C1)SC2=C3C=C(SC3=CN=C2)C(=O)N; assay: log2 fold change, soluble protein after heating vs DMSO (PISA); higher = thermal stabilisation; K562 cells, 10 uM, 30 min; active = over 0.2 and 3.5 SD of the protein, either way, in both replicates (recomputed)
How it was run: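 K562 cells at 2×10^6 cells/mL were exposed to 10 μM compound for 30 min, then aliquots were heated for 3 min across 48°C-58°C, pooled, and extracted in PBS containing 0.5% NP-40 at 4°C. The supernatant after 21,000xg for 90 min was taken as soluble protein and measured by TMTpro 16plex LC-MS/MS with channel sums equalised. Thermal stability is reported relative to control samples, with values from duplicates. Fold changes are given on a log2 scale.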

| Target | log2 fold change |
| --- | --- |
| DCTN5 (UniProt Q9BTE1) | inactive: 0.002 |
| CTU1 (UniProt Q7Z7A3) | inactive: 0.061 |
| CYSTM1 (UniProt Q9H1C7) | inactive: -0.035 |
| CYB5A (UniProt P00167) | inactive: -0.002 |
| DCUN1D1 (UniProt Q96GG9) | inactive: 0.022 |
| CYP46A1 (UniProt Q9Y6A2) | inactive: -0.195 |
| DCAF6 isoform 3 (UniProt Q58WW2) | inactive: -0.034 |
| CSRP3 (UniProt P50461) | inactive: -0.041 |
| DCAF4L2 (UniProt Q8NA75) | inactive: -0.01 |
| CTR9 (UniProt Q6PD62) | inactive: -0.244 |
| DBNL isoform 3 (UniProt Q9UJU6) | inactive: 0.011 |
| CTSZ (UniProt Q9UBR2) | inactive: 0.025 |
| DCTN1 isoform 4 (UniProt Q14203) | inactive: 0.015 |
| CYBA (UniProt P13498) | inactive: 0.041 |
| CT55 (UniProt Q8WUE5) | inactive: 0.051 |
| DCAF13 (UniProt Q9NV06) | inactive: -0.123 |
| CYB561A3 isoform 2 (UniProt Q8NBI2) | inactive: -0.074 |

| Target | log2 fold change |
| --- | --- |
| DBT (UniProt P11182) | inactive: 0.01 |
| CWF19L2 (UniProt Q2TBE0) | inactive: 0.166 |
| DBN1 isoform 3 (UniProt Q16643) | inactive: 0.016 |
| CTSH (UniProt P09668) | inactive: 0.013 |
| DCP2 (UniProt Q8IU60) | inactive: 0.016 |
| CTSC (UniProt P53634) | inactive: 0.059 |
| DAXX (UniProt Q9UER7) | inactive: 0.031 |
| CTNND1 (UniProt O60716) | inactive: -0.014 |
| DCAF16 (UniProt Q9NXF7) | inactive: 0.059 |
| CSTF2 (UniProt P33240) | inactive: 0.002 |
| CTSB (UniProt P07858) | inactive: 0.022 |
| DAPK1 isoform 3 (UniProt P53355) | inactive: -0.104 |
| DCTPP1 (UniProt Q9H773) | inactive: 0.009 |
| DAB2 (UniProt P98082) | inactive: -0.03 |
| CYP51A1 (UniProt Q16850) | inactive: -0.098 |
| CTSA (UniProt P10619) | inactive: -0.02 |
| CUX1 isoform 3 (UniProt P39880) | inactive: 0 |
